This test concerns the target cynomolgus NTB-A (cynomolgus monkey). Briefly: flow cytometry on 293-F17 cells overexpressing cynomolgus NTB-A, 20 µg/mL antibody, goat anti-human IgG-PE. For orientation: In flow cytometry, cells or beads pass a laser one at a time.

Results are given in words; binding and its absence hold for the method and conditions named. A result given as binding can be weak or reduced; the word gives no strength.

The results in this text go back to patent publication US20180169257A1 (Seagen, published 2018).

B1: chimeric 20F3 (antibody, V domains shown)
VH: QIQLVQSGPELKKPGETVKISCKASGYTFTNYGMNWVKQAPGKDLKWMGWINTYSGEPRYADDFKGRFAFSLEKSANTAYLQINNLKNEDMATYFCARDYGRWYFDVWGTGTTVTVSS
VL: QIVLSQSPAILSASPGEKVTMTCRASSSVSHMHWYQQKPGSSPKPWIYATSNLASGVPARFSGSGSGTSYSLTISRVEAEDAATYYCQQWSSTPRTFGGGTKLEIKR
notes: It was detected with goat anti-human IgG, so the constant regions are human, but they are not specified
As to B1, the binding result is “binds”.

B2: humanized 20F3 HDLD antibody (antibody, V domains shown)
VH: QIQLVQSGSELKKPGASVKVSCKASGYTFTNYGMNWVRQAPGQDLKWMGWINTYSGEPRYADDFKGRFVFSLDKSVNTAYLQISSLKAEDTAVYYCARDYGRWYFDVWGQGTTVTVSS
VL: QIVLSQSPATLSLSPGERATMSCRASSSVSHMHWYQQKPGQAPRPWIYATSNLASGVPARFSGSGSGTDYTLTISSLEPEDFAVYYCQQWSSTPRTFGGGTKVEIKR
notes: also called h20F3_HDLD; h20F3_HDLD-AF647
As for B2, the binding result is on record as “binds”.
